US7151116B2, “Apoptolidin analogs and derivatives for inducing apoptosis in transformed cells” (Board of Trustees of The Leland Stanford Junior University, priority 2003, dated 2006)
Some results were stated once for a whole list of compounds, not compound by compound.

Assay: Stability in the presence of all F0F1-ATPase assay components
Format: physicochemical
Details: 20 minutes at 37° C.
Protocol: To test the ability of isoapoptolidin to inhibit F0F1-ATPase activity, solutions of isoapoptolidin and apoptolidin including all assay components were analyzed for isomerization. After 20 minutes at 37° C., less than 12% conversion was detected.
To test the ability of apoptolidin derivatives to inhibit F0F1-ATPase activity, compound 16 from Table 3 was exposed to all of the assay components for up to 24 hours.

COC[C@@H](C[C@H]1O[C@@](O)([C@H](O)[C@@H]2C[C@H](OC)[C@@H](O)CC/C=C(C)/C=C/[C@@H](O[C@@H]3O[C@@H](C)[C@H](OC)[C@@H](O)[C@@H]3O)[C@H](C)/C=C(C)/C=C(C)/C=C(\C)C(=O)O2)[C@H](C)[C@@H](O)[C@H]1C)O[C@H]1C[C@](C)(O)[C@@H](O[C@H]2C[C@@H](OC)[C@H](O)[C@@H](C)O2)[C@H](C)O1 [Apoptolidin]
conversion (isomerization): less than 12%

COC[C@@H](C[C@H]1O[C@@](O)([C@@H]2OC(=O)/C(C)=C/C(C)=C/C(C)=C/[C@@H](C)[C@H](O[C@@H]3O[C@@H](C)[C@H](OC)[C@@H](O)[C@@H]3O)/C=C/C(C)=C/CC[C@H](O)[C@@H](OC)C[C@@H]2O)[C@H](C)[C@@H](O)[C@H]1C)O[C@H]1C[C@](C)(O)[C@@H](O[C@H]2C[C@@H](OC)[C@H](O)[C@@H](C)O2)[C@H](C)O1 [Isoapoptolidin]
conversion (isomerization): less than 12%
